# In PubChem BioAssay AID248 (DTP/NCI, 2004):
# The list does not hold the whole screen: it gathers some chemical classes. Other doses and runs of a compound may be missing. T/C gives the treated animals as a percentage of the vehicle group. Some doses have a count of surviving animals in place of a T/C: the source files T/C as zero there, which appears to mark a toxic dose or a test without result, not a measured value. Counts of survivors are from the toxicity check (mostly the fifth day) where no day follows; animals may have died later. Schedule codes are those of the source, read here as Q, the interval in days (D) or hours (H), X, the number of doses. For survival time, this PubChem deposit counts one and a half times the control or more as active, and values a quarter to a half above the control carry no call in these data; other NCI protocols may use other cut-offs. Some schedule codes hold Z or #, which are not explained here. Some entries show no survivor count and are marked so; the dose need not have been tolerated. Some T/C values carry the count of animals alive at the toxicity check (mostly the fifth day); where neither a count nor a note follows, no animal had died by that day.
# Tested on: L1210 leukemia ip in BDF1 mice, survival T/C
# Experiment: NCI In Vivo Anticancer Drug Screen. Data for tumor model L1210 Leukemia (intraperitoneal) in B6D2F1 (BDF1) mice
# Conditions: T/C endpoint: mean survival time, higher T/C = longer survival
smiles,measurement,setting,value
Cc1ccc(NC(=O)NP(=O)(Nc2ccccc2)Nc2ccccc2)cc1Cl,T/C,"dose: 50.0 mg/kg/injection, schedule: Q01DX001 (ip), vehicle: alcohol",102 % of control
same,T/C,"dose: 100.0 mg/kg/injection, schedule: Q01DX001 (ip), vehicle: alcohol",96 % of control
same,T/C,"dose: 200.0 mg/kg/injection, schedule: Q01DX001 (ip), vehicle: alcohol",96 % of control
same,T/C,"dose: 400.0 mg/kg/injection, schedule: Q01DX001 (ip), vehicle: alcohol",96 % of control
O=C1c2cc([N+](=O)[O-])ccc2-c2c1cc([N+](=O)[O-])cc2[N+](=O)[O-].Oc1cccc2ccc3ccc4ccccc4c3c12,T/C,"dose: 50.0 mg/kg/injection, schedule: Q04DX002 (ip), vehicle: Klucel (hydroxypropylcellulose) (HPC)",97 % of control
same,T/C,"dose: 100.0 mg/kg/injection, schedule: Q04DX002 (ip), vehicle: Klucel (hydroxypropylcellulose) (HPC)",93 % of control
same,T/C,"dose: 200.0 mg/kg/injection, schedule: Q04DX002 (ip), vehicle: Klucel (hydroxypropylcellulose) (HPC)",97 % of control
NC1CCCCC1.O=P(O)(Oc1ccccc1)N(CCCl)CCCl,T/C,"dose: 62.5 mg/kg/injection, schedule: Q01DX010 (ip), vehicle: saline",98 % of control
same,T/C,"dose: 125.0 mg/kg/injection, schedule: Q01DX010 (ip), vehicle: saline",89 % of control [5 of 6 alive]
same,T/C,"dose: 250.0 mg/kg/injection, schedule: Q01DX010 (ip), vehicle: saline",104 % of control
CS(=O)(=O)OC1CSCCc2ccccc21 (centres undefined),T/C,"dose: 25.0 mg/kg/injection, schedule: Q01DX001 (ip), vehicle: carboxymethylcellulose (CMC)",102 % of control
same,T/C,"dose: 50.0 mg/kg/injection, schedule: Q01DX001 (ip), vehicle: carboxymethylcellulose (CMC)",104 % of control
same,T/C,"dose: 100.0 mg/kg/injection, schedule: Q01DX001 (ip), vehicle: carboxymethylcellulose (CMC)",102 % of control
CCN(CC)CCOC(=O)C(O)(c1ccccc1)c1ccc(C)cc1 (centres undefined),T/C,"dose: 9.38 mg/kg/injection, schedule: Q01DX001 (ip), vehicle: other",102 % of control
same,T/C,"dose: 18.75 mg/kg/injection, schedule: Q01DX001 (ip), vehicle: other",100 % of control
same,survivor count,"dose: 37.5 mg/kg/injection, schedule: Q01DX001 (ip), vehicle: other",2 of 6
same,survivor count,"dose: 75.0 mg/kg/injection, schedule: Q01DX001 (ip), vehicle: other",0 of 6
same,survivor count,"dose: 150.0 mg/kg/injection, schedule: Q01DX001 (ip), vehicle: other",0 of 6
same,survivor count,"dose: 300.0 mg/kg/injection, schedule: Q01DX001 (ip), vehicle: other",0 of 6
CCOC(=O)C(CC(C)C)NC(=O)N(CCCl)CCCl (centres undefined),T/C,"dose: 125.0 mg/kg/injection, schedule: Q01DX Z (ip), vehicle: water",100 % of control
same,T/C,"dose: 250.0 mg/kg/injection, schedule: Q01DX Z (ip), vehicle: saline",96 % of control
same,T/C,"dose: 250.0 mg/kg/injection, schedule: Q01DX Z (ip), vehicle: water",106 % of control
same,T/C,"dose: 500.0 mg/kg/injection, schedule: Q01DX Z (ip), vehicle: saline",112 % of control
COc1cc([N+](=O)[O-])c(-c2c([N+](=O)[O-])cc(OC)cc2[N+](=O)[O-])c([N+](=O)[O-])c1,T/C,"dose: 100.0 mg/kg/injection, schedule: Q01DX009 (ip), vehicle: Klucel (hydroxypropylcellulose) (HPC)",113 % of control [survivor count not shown]
same,T/C,"dose: 100.0 mg/kg/injection, schedule: Q04DX003 (ip), vehicle: saline",103 % of control [survivor count not shown]
same,T/C,"dose: 200.0 mg/kg/injection, schedule: Q01DX009 (ip), vehicle: Klucel (hydroxypropylcellulose) (HPC)",103 % of control [survivor count not shown]
same,T/C,"dose: 200.0 mg/kg/injection, schedule: Q04DX003 (ip), vehicle: saline",97 % of control [survivor count not shown]
same,T/C,"dose: 400.0 mg/kg/injection, schedule: Q01DX009 (ip), vehicle: Klucel (hydroxypropylcellulose) (HPC)",102 % of control [survivor count not shown]
same,T/C,"dose: 400.0 mg/kg/injection, schedule: Q04DX003 (ip), vehicle: saline",108 % of control [survivor count not shown]
